Results are given in words; binding and its absence hold for the method and conditions named. Some binding calls cover weakened binding; strength is not graded here. Where a sequence is shown, tags or fusion partners need not be part of it.
What was measured:
[1] = biological target: T1, RS1 (retinoschisin), human, recombinant, secreted from Sf21 insect cells (human), O15537; experiment: SDS gel electrophoresis, reducing versus non-reducing; purified RS1 on SDS gels under disulphide reducing (about 25 kDa) and non-reducing (about 200 kDa) conditions; both purified; conditions: remark: other sources report otherwise
T1 chain: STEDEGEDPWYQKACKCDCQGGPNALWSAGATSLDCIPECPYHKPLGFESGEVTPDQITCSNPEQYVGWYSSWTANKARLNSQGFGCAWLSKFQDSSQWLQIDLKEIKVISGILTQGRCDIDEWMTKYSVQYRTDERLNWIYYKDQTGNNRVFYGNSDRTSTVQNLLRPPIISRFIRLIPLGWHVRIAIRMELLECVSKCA

[2] = biological target: T1, RS1 (retinoschisin), human, …; experiment: SEC; nondenatured RS1 on a calibrated Superdex 200 10/300 column, 20mM Tris-HCl pH 7.5, 100mM NaCl, 0.5 ml/min; both purified; conditions: remark: other sources report otherwise

B1: RS1 (retinoschisin), human, recombinant, secreted from Sf21 insect cells, O15537 24-224 (natural protein)
chain: T1 chain
**Q.** With B1 as the binder, how does the binding [1] read?
**A.** Its binding is “binds”.

**Q.** And the binding [2]?
**A.** The binding was “binds”.

Reference: paper PMC4728063
